These are yes or no findings as the source states them, for the method shown. In cells and extracts the contact can be indirect. Some binding calls cover weakened binding; strength is not graded here.
How the values were obtained:
[1] = target: RNF168 (RING finger protein 168) (human (endogenous in NEC)) (UniProt Q8IYW5); test: co-IP; endogenous proteins, NEC cells harvested with NP-40 lysis buffer; lysate pre-cleared with mouse IgG 2 hours, incubated overnight with RNF168 mouse antibody (SC-101125), mouse IgG as negative control; immunoblot with STAT1 antibody (9172)
[2] = target: RNF168 (RING finger protein 168) (human (endogenous in NEC)) (UniProt Q8IYW5); test: co-IP; endogenous proteins, NEC cells separated into cytosol and nuclear fractions (subcellular protein fractionation kit, Thermo Scientific 78840); IP with RNF168 antibody in both the cytosol and nuclear lysis, STAT1 antibody for detection; result told for the nuclear fraction

By UniProt entry, the sequences of proteins in these tests, tags left out.
UniProt Q8IYW5: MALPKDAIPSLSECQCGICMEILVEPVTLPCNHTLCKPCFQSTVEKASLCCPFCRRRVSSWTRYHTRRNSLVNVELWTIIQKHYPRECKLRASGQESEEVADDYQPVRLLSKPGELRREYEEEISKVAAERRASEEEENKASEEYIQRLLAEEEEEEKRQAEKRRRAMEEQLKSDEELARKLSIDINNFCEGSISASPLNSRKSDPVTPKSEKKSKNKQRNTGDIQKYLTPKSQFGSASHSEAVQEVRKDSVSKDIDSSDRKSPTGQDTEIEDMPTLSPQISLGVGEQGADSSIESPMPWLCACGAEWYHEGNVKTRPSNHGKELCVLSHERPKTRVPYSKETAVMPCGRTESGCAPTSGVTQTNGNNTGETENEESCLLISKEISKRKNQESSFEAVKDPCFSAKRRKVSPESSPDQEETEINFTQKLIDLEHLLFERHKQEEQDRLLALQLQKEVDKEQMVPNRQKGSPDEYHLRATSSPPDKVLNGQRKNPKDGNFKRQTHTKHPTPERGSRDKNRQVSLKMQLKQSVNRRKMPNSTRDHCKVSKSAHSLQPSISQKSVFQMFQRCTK
UniProt P42224: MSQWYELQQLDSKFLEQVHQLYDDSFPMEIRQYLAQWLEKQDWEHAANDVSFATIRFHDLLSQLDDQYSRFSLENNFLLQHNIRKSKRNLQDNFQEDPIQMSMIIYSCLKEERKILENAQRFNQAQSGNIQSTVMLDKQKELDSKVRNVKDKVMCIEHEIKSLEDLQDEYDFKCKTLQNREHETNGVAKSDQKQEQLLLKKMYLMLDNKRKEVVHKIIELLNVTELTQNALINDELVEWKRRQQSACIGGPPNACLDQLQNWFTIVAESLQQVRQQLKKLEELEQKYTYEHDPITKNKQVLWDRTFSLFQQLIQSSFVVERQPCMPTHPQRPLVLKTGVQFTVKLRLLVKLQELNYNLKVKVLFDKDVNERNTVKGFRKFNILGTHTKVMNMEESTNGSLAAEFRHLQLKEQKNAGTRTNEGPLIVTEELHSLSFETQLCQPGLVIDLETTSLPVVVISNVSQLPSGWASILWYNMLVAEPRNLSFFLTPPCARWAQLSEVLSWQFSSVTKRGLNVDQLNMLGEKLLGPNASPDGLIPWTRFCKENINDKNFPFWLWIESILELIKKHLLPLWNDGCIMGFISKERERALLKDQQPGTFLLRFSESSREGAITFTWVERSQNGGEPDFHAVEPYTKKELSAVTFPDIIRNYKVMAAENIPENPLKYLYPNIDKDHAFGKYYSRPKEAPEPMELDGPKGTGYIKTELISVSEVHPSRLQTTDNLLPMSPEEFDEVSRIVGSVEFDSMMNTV

binding [1]: binds
binding [2]: binds
Substance: STAT1 (from UniProt P42224 1-750)
